In all, about 33,000 sequences were measured (“E-score (-0.5 to 0.5)”: median about -8e-05, highest 2% from about 0.23 on). This is one part of the list.
The sequences below were run against T1, Nrg2 (UniProt P38082) (assay: PBM E-score (8-mer binding enrichment) (E-score (-0.5 to 0.5)); higher = stronger / more preferred TF binding). Conditions: protein concentration: 100 nM; construct: GST-full length.
T1 sequence: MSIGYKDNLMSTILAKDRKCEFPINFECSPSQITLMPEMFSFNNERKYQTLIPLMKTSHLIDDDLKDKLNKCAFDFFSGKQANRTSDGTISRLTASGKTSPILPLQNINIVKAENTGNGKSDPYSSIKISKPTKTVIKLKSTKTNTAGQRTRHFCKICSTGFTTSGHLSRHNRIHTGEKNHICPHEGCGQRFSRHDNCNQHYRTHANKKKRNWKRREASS
Experimental: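 Universal 'all 10-mer' protein binding microarrays (Agilent AMADID 015681) probed with GST-tagged S. cerevisiae TFs (full-length or DBD) made by in vitro transcription/translation (PURExpress), about 100-200 nM. Bound TF was detected with fluorescent anti-GST. Each ungapped 8-mer (which stands for itself and its reverse complement) is scored by the PBM enrichment score (E-score), a modified Wilcoxon-Mann-Whitney statistic from -0.5 to +0.5, computed with the Universal PBM Analysis Suite. Scale: above 0.35 generally sequence-specific binding.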

Sequence	PBM E-score
AAGATCCT	0.123
AATTGAGG	0.0708
ATATATCA	0.196
ACCATGAA	0.199
ACCAAACT	0.102
GTGGTCCA	0.0422
GTGCATAA	-0.0219
ATGCCAGA	0.0482
CGGGCGCC	0.0792
GCTTCCAC	-0.206
AGTTGGCC	-0.16
CATTCAAC	0.0133
ATTAGATG	0.195
TTAAAGAA	0.144
CATCCGGC	-0.0322
TAAGGGAA	0.0768
ACACCCAC	0.0311
CCTCGGCC	0.121
CGTTATAC	-0.19
AGTAACTA	0.176
CAAATAAG	-0.00144
AGAACCGC	0.0943
AGACACTC	-0.0725
TAGCCGAA	0.036
TACCGCTA	-0.101

Sequence	PBM E-score
CGTGTGGA	-0.0391
TCACTAGA	0.0361
CTTAGTCC	-0.107
CAGTAATG	-0.0052
AACCCGTC	-0.152
GCAGTAAC	-0.0897
GTCGCCGA	-0.095
ATACTCTA	-0.0571
GAGACACA	0.0645
AAAAACTA	0.136
ACTTCAAC	-0.0267
AGCATGGA	-0.181
AGCGACAG	0.0447
CAAAATAG	-0.00183
AAAAGTCT	-0.194
AACGTAAC	0.00432
CATCAAGA	-0.00089
TGAATACA	0.0782
CAGACCTC	-0.183
GGGGGCAA	-0.207
ACTCCCTG	0.0291
ATATATCG	0.161
AAGTCGTA	-0.164
AGTCAACA	0.00316
CAGGGCAA	0.188

Sequence	PBM E-score
AGAGCATC	-0.0447
GGCGGCGA	-0.107
TACGGCGA	0.0279
GTACAATA	0.128
CCTATAAC	-0.197
CCGAGTAC	-0.0185
AGCTATTC	-0.111
ACTTGGCT	0.0269
CACCCGAG	-0.0746
CTAACAGA	0.0875
GGCGCTCA	-0.0461
GATCTCCC	-0.138
ATGCAGTC	-0.244
ACAACAAT	0.0865
TGAGTTAA	0.0318
AATAAAGG	-0.0433
AGCTCCTG	-0.201
AGAAGCCG	0.141
AGGGCACC	-0.113
CCCAAGAG	-0.174
GCTAGTCA	-0.203
AGCGACTC	0.00573
GTGGTGTA	-0.106
AATAAATA	0.246
CGCAGAGA	0.0184

Sequence	PBM E-score
GGTGAAAA	0.158
ACGGGGTC	0.0404
ATTCAGCC	-0.0946
ATCCCACA	-0.0492
GGTGTAAC	0.018
CGAAAGAC	-0.0591
ACGGCGCA	0.102
ACATGAGG	-0.21
ACCGTTGG	-0.0948
CATTAGTC	-0.0583
CTTTTACA	0.0661
GCAGGCCA	-0.00487
AGGGTCTA	0.356
GAATATGA	-0.0524
GAAAGAGC	-0.0335
CCCAAACG	-0.123
CCCACGGC	-0.0251
ATGCACGG	-0.0196
CGCTTCAG	0.0138
CATCTTAA	0.251
GCACCTCA	0.0688
AAATGACG	0.167
CTCAACGC	0.0992
AACCTGAG	0.0374
CGAGGTAG	-0.127

Sequence	PBM E-score
AGTGCATC	-0.00114
ACAACCCA	0.106
GTAGTTGA	0.143
CGTCGACG	0.114
AAGGCGGA	-0.0742
AAGGGAGG	-0.19
ACGTTATA	0.00956
AGTGCACC	0.0907
ACACACAG	0.208
CCAGGATA	0.0393
CATGCGGA	-0.173
ACAACGGC	0.0869
GTCTACTA	0.0788
CAGCACGC	-0.15
CGCACCCA	-0.142
ATGATGAG	0.0874
CATGAGAG	0.118
ACCCTCGC	0.144
ATACAATA	0.239
GTGGATCA	-0.132
ACACCTCC	-0.258
AGGCGTTG	0.0253
CTGATGAC	0.0398
ACCAATCT	0.0269
GCGGATGA	0.11

Sequence	PBM E-score
CTATCGCC	-0.172
AAGCAACT	0.14
GGAATTTA	0.103
CGGTGATA	-0.0567
AACCTCCC	-0.147
CGCTAATC	-0.0129
CCGTTAGC	-0.196
CAGATTCC	-0.0915
AAAAAACG	-0.0569
AAATCGTG	0.177
GTGAAAGA	0.0754
TACCGCGA	0.0041
AGTAGTTG	0.253
CTGACCTC	-0.164
CACCTCAC	0.0319
AGGCAGCG	-0.0983
ATCAGAAG	0.135
GCCGGACC	-0.0451
CTTGTATC	0.0489
TGAGTGAA	0.0506
GATGTCCA	-0.0309
GAGATACC	0.127
CAAGGAAG	0.017
ATCCCTTG	0.111
GTAGGGCA	-0.141

Sequence	PBM E-score
GGGTCTAC	0.203
GGTCAGGA	0.244
CTGTTAGA	-0.16
CTTCCTAC	-0.36
GGATAGCA	0.0845
CTAACTTA	0.0931
GCACCTGC	-0.145
GAACCAGC	0.0888
ATAGTGTG	0.116
CACGGATC	-0.0332
ACCTAAAT	0.0332
ATCGCAGA	-0.0922
ACTAAGCG	0.0152
ACCCTAAC	0.116
GTGAGTGA	-0.0223
GACTACAC	0.0721
GCCAAAGC	-0.121
ATCGTTTG	0.0816
AATGATAG	0.219
TACCGACA	0.0923
AAATGGTC	0.0735
CGCATTCC	-0.225

Reprinted from the entries so far for reference:
Sequence	PBM E-score
AATGATAG	0.219
TACCGACA	0.0923

Another view of some results above:

| Sequence | PBM E-score |
| --- | --- |
| CTAACTTA | 0.0931 |
| GCACCTGC | -0.145 |
| GAACCAGC | 0.0888 |
| ATAGTGTG | 0.116 |
| CACGGATC | -0.0332 |
| ACCTAAAT | 0.0332 |
